In article PMC5792436:
pKd: −log10 of the molar value. For at least one entry, the source does not settle the construct or the ends of the probe.

Sequences of proteins named here, by UniProt entry; tags and fusion partners are left off.
UniProt P19821, whole entry: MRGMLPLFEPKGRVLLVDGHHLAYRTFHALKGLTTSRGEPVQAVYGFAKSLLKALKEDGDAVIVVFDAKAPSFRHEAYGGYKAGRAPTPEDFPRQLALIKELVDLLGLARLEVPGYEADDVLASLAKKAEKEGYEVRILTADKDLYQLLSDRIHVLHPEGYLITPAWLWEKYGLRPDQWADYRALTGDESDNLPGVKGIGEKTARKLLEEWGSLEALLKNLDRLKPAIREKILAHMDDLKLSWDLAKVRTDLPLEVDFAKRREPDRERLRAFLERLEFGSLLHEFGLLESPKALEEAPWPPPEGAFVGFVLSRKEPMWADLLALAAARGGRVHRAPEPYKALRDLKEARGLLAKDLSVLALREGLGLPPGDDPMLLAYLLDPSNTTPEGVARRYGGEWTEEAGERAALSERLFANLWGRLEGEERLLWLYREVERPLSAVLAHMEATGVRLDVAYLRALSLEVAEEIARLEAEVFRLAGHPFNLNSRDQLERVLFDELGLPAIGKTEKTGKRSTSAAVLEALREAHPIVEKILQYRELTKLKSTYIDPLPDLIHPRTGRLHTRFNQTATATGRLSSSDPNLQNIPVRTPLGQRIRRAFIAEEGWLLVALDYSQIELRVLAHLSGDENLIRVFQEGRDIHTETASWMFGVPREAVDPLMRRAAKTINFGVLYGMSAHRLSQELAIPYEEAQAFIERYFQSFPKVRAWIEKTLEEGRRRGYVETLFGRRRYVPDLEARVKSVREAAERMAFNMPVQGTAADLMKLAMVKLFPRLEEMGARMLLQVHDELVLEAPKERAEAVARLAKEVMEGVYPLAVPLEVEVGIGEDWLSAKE

Target: Taq DNA polymerase, purified (pHis-Taq) (UniProt P19821)
Test: EMSA
Details: 2 nM DNA, no Mg2+, no detectable interaction up to 1000 nM Taq; 10 mM Tris-HCl pH 7.9, 50 mM KCl, 1 mM EDTA, 5% glycerol, 1 mM DTT, 25 ug/ml BSA; no MgCl2, no poly(dI-dC); 20 min at room temperature; 6% PAGE in 0.5X TBE; recombinant protein; protein details: His (inserted at NcoI site of pTrc-Taq); label: 5' biotin; single-stranded DNA

TACCGAGCTCTTACGCGTGCCTCTGACTTGCCTCAGAGC [Bio-Olig2.5]
pKd: < 6.00
